# Measured values from paper PMC12040169 (PLOS Biology, 2025).
# The list shows a part of the results.
# System: T1, CTL2-GFP (C. trachomatis L2/434/Bu, GFP-expressing)
# T1 construct: L2/434/Bu, GFP-expressing
# Parameters: species or system HeLa; Intracellular C. trachomatis growth in HeLa cells, bulk GFP fluorescence relative to DMSO
# Settings: bulk GFP, single well; 28.5 h, 10 µM; inhibitor
row,Structure (SMILES),% of control remaining [%]
1,CC(C)(C)N=C1c2nn(Cc3ccccc3)nc2C(=NC(C)(C)C)c2nn(Cc3ccccc3)nc21 [CBK261070],110.075
2,O=C(Cn1c(=O)oc2ccccc21)Nc1cccc(C(=O)O)c1 [CBK267641],112.984
3,CC1CCc2c(sc3ncn(C4CCNCC4)c(=O)c23)C1 (stereo not shown) [CBK282349],104.513
4,CCc1nc(CN2CCN(C(=O)Nc3ccccc3C)CC2)cs1 [CBK305817],93.9736
5,Cc1cccc(NC(=O)CCC(=O)N/N=C/c2cccnc2)c1 [CBK262023],102.833
6,CC(=O)Nc1ccc(NC(=O)[C@H]2CCCC[C@H]2C(=O)O)cc1 [CBK287073],118.183
7,CCOC(=O)C(NS(=O)(=O)c1ccc(NC(C)=O)c(Cl)c1)C(=O)OCC [CBK043996],107.379
8,Cc1ccc(S(=O)(=O)NC(C)(C)C(=O)O)cc1 [CBK263840],123.59
9,O=C(O)CCCn1cc(NC(=O)c2c(F)cccc2F)cn1 [CBK269941],145.032
10,COc1ccc(-c2cc(C(=O)O)nn2C2CCS(=O)(=O)C2)cc1 (stereo not shown) [CBK286990],144.839
11,NC(=O)c1csc(-c2ccc(F)cc2F)n1 [CBK067749],111.401
12,COc1cc2c(cc1OC)CN(Cc1ccccc1[N+](=O)[O-])CC2 [CBK261535],106.663
13,Cc1ccc2nc(C)cc(NC(=O)c3ccncc3)c2c1 [CBK287801],117.829
14,CC1CCCCN1C(=O)CN1C(=O)N2CCCN=C2c2ccccc21 (stereo not shown) [CBK284393],101.287
15,COc1ccc(OC)c(NC(=O)CSc2nnc(-c3ccc(F)cc3)n2C)c1 [CBK266073],157.72
16,O=C(CNS(=O)(=O)c1cc(Br)c(Cl)s1)N1CCOCC1 [CBK034474],103.997
17,COc1ccc(C(=O)CC(SCC(NC(C)=O)C(=O)O)c2ccc(Cl)cc2)cc1OC (stereo not shown) [CBK296109],119.443
18,CCOc1cc(N2CCOCC2)c(OCC)cc1NC(=O)CSc1ccccc1C(=O)O [CBK296107],125.526
19,Cc1ccc(NC(=O)CCCn2cc([N+](=O)[O-])cn2)cc1Cl [CBK268485],113.982
20,NC(=O)C1CCN(C2=NC(=O)/C(=C/c3cn(-c4ccccc4)nc3-c3cccs3)S2)CC1 [CBK265179],100
21,OC1(Cn2cnc3ccccc32)CCN(Cc2ccccc2F)CC1 [CBK284662],150.354
22,O=S(=O)(Nc1ccc(C(O)(C(F)(F)F)C(F)(F)F)cc1)c1ccc(N2CCOCC2)nc1 [CBK062100],85.8377
23,Cc1cc(C)c2c(O)nc(SCC(=O)c3ccc(F)c(C)c3)nc2n1 [CBK266087],194.006
24,CCNC(=O)c1cc2c(=O)n3cc(C)ccc3nc2n(Cc2ccco2)c1=N [CBK265312],100
25,COC(=O)c1csc(-c2ccc(Cl)cc2Cl)n1 [CBK067776],105.328
26,O=C(Nc1cccc2cc[nH]c12)c1cc(F)cc(Cl)c1 [CBK160075],87.5988
27,O=C(COc1ccc2ccccc2c1)Nc1ccc(S(=O)(=O)N2CCc3ccccc32)cc1 [CBK263802],100

row,Structure (SMILES),% of control remaining [%]
1,Clc1ccc(OCc2nnn[nH]2)c(C2CCCCC2)c1 [CBK270035],111.192
2,O=C(CC1SC(=O)NC1=O)Nc1ccccc1O (stereo not shown) [CBK057932],100
3,CC(C)NC(=O)C1CN(Cc2ccccc2)CC12CCc1ccccc1C2NC(=O)CN (stereo not shown) [CBK283093],178.202
4,O=C(C1CCC1)N1CCCC1c1nnc(-c2ccsc2)o1 (stereo not shown) [CBK283365],145.017
5,Cc1nc2c(c(=O)[nH]1)CN(Cc1cccc(Oc3ccccc3)c1)CC2 [CBK283951],132.734
6,COCC(C)NC(=O)c1cc2c(C)cc(C)cc2[nH]1 (stereo not shown) [CBK057591],149.942
7,NC(=O)c1c(NC(=O)c2ccc(COc3ccc4ccccc4c3)o2)sc2c1CCCC2 [CBK265871],100
8,CC1CCCN(Cc2c(C3CCNCC3)[nH]c3ncccc23)C1C (stereo not shown) [CBK285084],147.451
9,CN1CCN(CCCNC(=O)c2ccc(-c3ccc(C(=O)N(C)C)cc3)nc2)CC1 [CBK158343],98.8704
10,Cc1nc(CNCc2c(C)nn(C)c2N2CCOCC2)cs1 [CBK305753],99.3259
11,CCCc1[nH]n(CC(=O)OCC)c(=O)c1Cc1c(Cl)cccc1Cl [CBK104764],101.524
12,O=C(Nc1cccnc1)c1cc(-c2ccc(Cl)cc2)on1 [CBK116555],103.324
13,CC(C)N(CC(=O)N(c1ccccc1)c1ccccc1)C(C)C [CBK013303C],114.337
14,Nc1ncc(-c2cccc(O)c2)nc1NCc1ccco1 [CBK063675],128.459
15,COc1ccc(CN2C(=O)CO[C@H]3CN(c4nccc(C)n4)C[C@H]32)cc1 [CBK289056],118.875
16,c1cnc(Oc2ccc(CN3CCCC(c4cn[nH]c4)C3)cc2)cn1 (stereo not shown) [CBK306416],89.6057
17,Cc1ccc2nc(NCc3ccco3)c(/C=N/Cc3ccco3)c(=O)n2c1 [CBK220353],118.527
18,O=C(Nc1cc2ccccc2c(Br)n1)Nc1ccc(F)cc1C(F)(F)F [CBK063278],103.342
19,CCOC(=O)C1=C(C)NC(=S)NC1c1ccc(O)c(OCC)c1[N+](=O)[O-] (stereo not shown) [CBK265624],132.117
20,CCc1nccn1CCC(=O)Nc1ccc2c(c1)CCN2C(C)=O [CBK281446],124.55
21,C=CCN1C(=O)/C(=C2/Sc3ccc(OC)cc3N2C)S/C1=N\c1cc(C#N)ccc1NCC [CBK262431],100
22,CS(=O)(=O)Nc1ncc(Br)cc1C(=O)Nc1ccc(C(F)(F)F)cc1 [CBK076485],100.945
23,CCC1CCCCN1C(=O)CCc1c(C)nc(-c2ccccc2)[nH]c1=O (stereo not shown) [CBK305608],86.338
24,COc1ncc(-c2cccc(N(C)CCN(C)C)n2)c(OC)n1 [CBK037599],86.1728
25,CSCCCNC(=O)N1CCN(C2CCN(C)CC2)CC1 [CBK155882],81.55
26,CSCCN1CCN(c2nccnc2OCc2cccnc2)CC1 [CBK083146],127.051
27,N#Cc1cnn2c(C(F)(F)F)cc(C(F)(F)F)nc12 [CBK014064],95.4792

row,Structure (SMILES),% of control remaining [%]
1,CCCS(=O)(=O)NC1CC(C)(C)Cc2c1cnn2-c1ccc(C)cc1 (stereo not shown) [CBK307531],138.026
2,COc1ccc(CN(C(=O)CCc2c(C)[nH]c(=O)c(C#N)c2C)C2CC2)cc1 [CBK295667],119.365
3,CN(C(=O)CCc1nc2sc3c(c2c(=O)[nH]1)CCCC3)C1CCCCC1 [CBK306075],118.538
4,CN(C)C(=O)c1cccc(-c2cnc3[nH]c(=O)n(Cc4ccc(Cl)cc4)c3n2)c1 [CBK064553],204.822
5,Cc1ccc(NC(=O)CSc2nnc(C(O)c3ccccc3)n2-c2ccccc2)c(Br)c1 (stereo not shown) [CBK267421],113.339
6,Cc1ccc(-c2csc(NC(=O)CN3C(=O)CCC3=O)n2)cc1 [CBK287346],134.54
7,COc1ccc2c(c1OC)C(=O)N1c3ccccc3COC21 (stereo not shown) [CBK109960],56.6834
8,Cc1cc(C[C@@H]2COC[C@H]2NCc2ccccc2Cl)on1 [CBK282969],126.958
9,O=C(CN1CCCCC1)Nc1sc2c(c1C(=O)Nc1ccccc1)CCCC2 [CBK267974],99.0465
10,COC(=O)c1ccc(NC(=S)NC(=O)c2cncc(Br)c2)cc1 [CBK099257],118.745
11,CCC(/C=C1\Sc2ccccc2N1CCCS(=O)(=O)[O-])=C\c1oc2ccc(OC)cc2[n+]1C [CBK261080],96.8057
12,CC(=O)Oc1cccc(NC(=O)CC2Sc3ccccc3NC2=O)c1 (stereo not shown) [CBK261792],113.377
13,COc1ccc2c(c1)C1(CC(=O)N(Cc3ccccc3)C1=O)C(=O)N2Cc1ccccc1 (stereo not shown) [CBK075228],110.679
14,Cn1/c(=N\C(=O)c2cccs2)sc2cc(Br)ccc21 [CBK018873],162.846
15,O=C(O)COc1ccc(NC(=O)c2ccc3c(c2)C(=O)N(C2CCCCC2)C3=O)cc1 [CBK266009],213.741
16,COc1cc(NC(=O)c2ccccc2)c(C(=O)O)cc1OC [CBK227754],117.309
17,CCN(CC)C(=O)N1CCN(Cc2cccc(OC)c2)C[C@@H]1C [CBK284268],84.9172
18,Cc1c(C(=O)O)cccc1N1C(=O)c2ccc([N+](=O)[O-])cc2C1=O [CBK262724],74.9508
19,CS(=O)(=O)N(CC(=O)Nc1ccc(S(=O)(=O)N2CCCCCC2)cc1)c1ccc(F)cc1 [CBK266932],155.237
20,Cn1ccc(C(=O)NC(Cc2cccs2)c2nccs2)n1 (stereo not shown) [CBK285135],108.892
21,Cn1ccnc1C1(O)C2CCCC1CN(Cc1ccccc1F)C2 (stereo not shown) [CBK285206],110.142
22,Cc1cc(Cl)cc(Br)c1OCCNCCN1CCOCC1 [CBK268615G],103.051
23,COC(=O)CNC(c1cc(Br)ccc1N)c1ccccc1Cl (stereo not shown) [CBK262605],100
24,CC(C)(CN)CN(Cc1ccccc1Br)C(=O)NCc1ccc(F)cc1 [CBK002469C],115.505
25,Cc1ccc(N)c(C(=O)CCCCC(=O)O)c1 [CBK260970],107.888

# An excerpt of these results, with bars between the fields.
row | Structure (SMILES) | % of control remaining [%]
10 | COC(=O)c1ccc(NC(=S)NC(=O)c2cncc(Br)c2)cc1 [CBK099257] | 118.745
20 | Cn1ccc(C(=O)NC(Cc2cccs2)c2nccs2)n1 (stereo not shown) [CBK285135] | 108.892
